Experimental data: PubChem BioAssay AID493014 (National Center for Advancing Translational Sciences (NCATS), 2011)
This is one part of the list. Further columns of the screen follow, without active or inactive calls. Compounds called inactive in the main read-out are mostly missing here. Potencies come from curve fits of mixed quality, noted in brackets.

Experiment: qHTS Assay to Find Inhibitors of Chronic Active B-Cell Receptor Signaling
Conditions: ABC-DLBCL IkBa-CBG/CBR reporter, luminescence ratio (green luciferase fused to IkBa over red control in TMD8 lymphoma cells), 4 h
Method in brief: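 TMD8 human ABC-DLBCL cells with doxycycline-inducible IκBα–green luciferase fusion and unfused red luciferase, in 0.5% FBS medium; compounds up to 46 uM, 4 h at 37C. Green/red luminescence ratio, filter-overlap corrected, fitted to concentration-response curves.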

[1] = measured here: CBR red luminescence, cell number
[2] = measured here: IkBa-CBG green luminescence

SMILES | AC50 [1] | AC50 [2]
COc1ccc(NC(=O)C2CCCN(C)C2)cc1OCC(C)C (stereo not given) | 6.51 µM [rising, full curve, poor fit] | –
COc1cc(/C=C2/C(=O)ON=C2c2ccccc2)ccc1O | 6.51 µM [rising, partial curve] | 20.6 µM [rising, partial curve, poor fit]
CCOc1ccc(C(C)NC(=O)CN2C(=O)NC3(CCCCC3)C2=O)cc1OCC (stereo not given) | 9.2 µM [rising, partial curve] | –
Cc1ccc(OCCC(=O)Nc2ccc(S(=O)(=O)Nc3cc(C)nc(C)n3)cc2)cc1 | 0.0326 µM [rising, full curve, poor fit] | –
COC(=O)c1ccccc1NC(=O)CN1CCCCCC1 | 10 µM [falling, partial curve, poor fit] | –
Cc1cccc(N2CCN(C(=O)C3CCN(S(=O)(=O)c4cccnc4)CC3)CC2)c1C | 0.058 µM [rising, full curve, poor fit] | –
COCC(C)Nc1ncnc2c1cnn2-c1cccc(Cl)c1 (stereo not given) | 3.16 µM [falling, full curve, poor fit] | –
COc1cc(/C=N/NC(=O)C2=NNC(=O)C2C)ccc1O (stereo not given) | 14.1 µM [falling, partial curve, poor fit] | –
COc1ccccc1OCCNC(=O)c1ccc2c(c1)OCCO2 | 6.51 µM [falling, partial curve, poor fit] | –
O=C(N/N=C1\CCCc2ccccc21)c1cccc([N+](=O)[O-])c1 | 1.16 µM [rising, full curve, poor fit] | –
COc1ccc(Cl)cc1-c1nc(SCC(=O)N(C)C)n[nH]1 | 35.5 µM [falling, single point] | –
COc1ccc(C/C(C)=N\NC(=O)c2c[nH]c3ccccc23)cc1OC | 3.98 µM [falling, partial curve, poor fit] | –
Cc1ccsc1/C=N/NC(=O)c1cccs1 | 29.1 µM [falling, single point] | –
COc1ccc(CC(=O)Nc2ccc(-c3nc4ccccc4s3)c(C)c2)cc1 | 6.31 µM [rising, single point] | –
COc1ccc(C2CC(=O)Oc3c(C(CCN4CCCCC4)c4ccc(N(C)C)cc4)c(OC)cc(OC)c32)cc1 (stereo not given) | 35.5 µM [falling, single point] | –
COc1ccc(NC(=O)CCCn2c(=O)c3sccc3n(Cc3ccc(C)cc3)c2=O)cc1 | 2.06 µM [rising, partial curve] | –
NNC(=O)c1nnn(-c2nonc2N)c1CN1CCc2ccccc2C1 | 0.501 µM [rising, full curve, poor fit] | –
CCC1(CC)Nc2ccccc2C(=O)N1c1ccc(OC)cc1 | 12.6 µM [falling, single point] | –
C=CC[C@H](CC(=O)N(CCO)Cc1ccccc1)C(=O)N[C@@H](COC(=O)[C@H](CC=C)CC(=O)OC(C)(C)C)Cc1c[nH]c2ccccc12 | 29.1 µM [falling, single point] | –
Cc1nn2c(N3CCOCC3)cc(C(C)C)nc2c1-c1ccccc1 | 8.91 µM [rising, partial curve, poor fit] | –
COc1cc(C2Nc3ccc4ccccc4c3C3=C2C(=O)CC(C)(C)C3)ccc1OC(C)C(=O)O (stereo not given) | 20 µM [falling, partial curve] | –

SMILES | AC50 [1] | AC50 [2]
CSc1ccccc1-n1nnnc1SCC(=O)Nc1ccccc1C | 1.84 µM [falling, full curve, poor fit] | –
Cc1nccn1CC(=O)N/N=C/c1ccccc1O | 6.31 µM [rising, partial curve] | –
CC1=C(C(=O)OCc2ccccc2)C(c2cccnc2)c2c(n(C)c(=O)n(C)c2=O)N1 (stereo not given) | 0.316 µM [falling, full curve] | –
Cc1ccsc1/C=C1/C(=O)NN(c2ccccc2)C1=O | 17.8 µM [falling, single point] | –
COc1cc(-c2cc(-c3ccc(F)cc3)nc(N)c2C#N)ccc1O | 12.6 µM [falling, single point] | –
O=C(Nc1cc(Sc2ccccn2)cc([N+](=O)[O-])c1)c1cccc(Cl)c1 | 18.4 µM [falling, partial curve, poor fit] | –
CC1=Nc2cc(C(=O)NCc3ccco3)ccc2Sc2ccc(C)cc21 | 8.2 µM [rising, partial curve] | 5.8 µM [falling, partial curve]
O=C(c1cccs1)N1CCN=C1SCc1ccc(F)cc1 | 5.01 µM [rising, single point] | –
Cc1[nH]n(C(N)=S)c(=O)c1C(c1ccccc1)C(C#N)C#N (stereo not given) | 2.31 µM [falling, partial curve] | –
COC(=O)c1cc(C#N)c(OC(C)C)nc1C | 2.24 µM [rising, full curve, poor fit] | –
CC(C)(C)C(=O)NC(Nc1cccc2cccnc12)C(Cl)(Cl)Cl (stereo not given) | 11.2 µM [falling, single point] | –
O=C(NC(=S)Nc1ccc(O)cc1)c1ccccc1Cl | 12.6 µM [falling, single point] | –
CCCN(CCC)CCNC(=O)CCC(=O)Nc1ccc2nc(N3CCN(C)CC3)cc(C)c2c1 | 10 µM [falling, partial curve, poor fit] | –
CCCc1[nH]nc2c1C(c1cn[nH]c1-c1ccc(F)cc1)C(C#N)=C(N)O2 (stereo not given) | 6.51 µM [falling, single point] | –
CCc1ccc(NC(=O)C2CCN(C(=O)[C@@H]3Cc4ccccc4CN3)CC2)cc1 | 0.631 µM [rising, partial curve, poor fit] | –
COc1ccccc1N1CCN(/N=C/c2ccc([N+](=O)[O-])cc2)CC1 | 7.08 µM [rising, partial curve, poor fit] | –
COc1ccc(Sc2nc3ccccc3n3c(C(F)(F)F)nnc23)cc1 | 20 µM [falling, single point] | –
C1=Nc2c(NCc3ccccc3)ncnc2Oc2ccccc21 | 0.92 µM [rising, partial curve, poor fit] | –
Cc1ccc(-c2nc3cc(Cl)ccc3o2)cc1 | 0.116 µM [rising, full curve, poor fit] | –
CSc1cccc(NC(=S)Nc2ccc(F)cc2)c1 | 3.16 µM [rising, single point] | –
C#CCN(Cc1ccccc1)S(=O)(=O)C=C | 8.2 µM [falling, partial curve, poor fit] | –

SMILES | AC50 [1] | AC50 [2]
Cc1ccccc1OCCn1nc(C(=O)O)c2ccccc2c1=O | 2.51 µM [rising, partial curve] | –
CC(C)CN(CC(C)C)c1nc(N)c(C#N)c(CC#N)c1C#N | 2.91 µM [falling, full curve] | –
COC(=O)CN1C(c2ccc(Cl)cc2)=Nc2ccc(Cl)cc2C1c1ccccc1 (stereo not given) | 3.66 µM [falling, full curve] | –
C/C(=N\Nc1ccc(Cl)cc1)c1ccncc1 | 0.112 µM [rising, full curve, poor fit] | –
CCN(Cc1ccccc1)S(=O)(=O)c1ccc(OC)cc1 | 35.5 µM [rising, single point] | –
O=C(Nc1ccc(F)c(F)c1)c1ccc(F)c(S(=O)(=O)N2CCC3(CC2)OCCO3)c1 | 2.51 µM [rising, partial curve, poor fit] | –
CC1(C(=O)O)Sc2[nH]c(=O)sc2C2c3ccccc3OC(=O)C21 (stereo not given) | 15.8 µM [falling, single point] | –
C[C@H](CO)N1C[C@H](C)[C@@H](CN(C)Cc2ccc(Cl)c(Cl)c2)Oc2c(NC(=O)C3CCOCC3)cccc2C1=O | 10.3 µM [falling, single point] | –
O=C(CCCc1nc(-c2ccccc2)no1)N1CCOCC1 | 5.01 µM [rising, partial curve, poor fit] | –
Cn1c(=O)cc(SCC(=O)N2CCN(C(=O)c3ccco3)CC2)c2ccccc21 | – | 13 µM [falling, partial curve, poor fit]
CCOC(=O)[C@H]1[C@H]2COc3ccccc3[C@@H]2N2C(=O)c3cc(F)ccc3NC(=O)[C@@]12C | 20.6 µM [falling, single point] | –
Cc1onc(-c2ccccc2Cl)c1C(=O)NC1CCCCCC1 | 17.8 µM [falling, single point] | –
CC(C)(C)c1cc(NCCCn2ccnc2)n2ncc(-c3ccc(Cl)cc3)c2n1 | 3.98 µM [falling, partial curve] | –
Cc1c(N)cccc1-c1nc2ccccc2[nH]1 | 8.2 µM [falling, partial curve] | –
COC(=O)c1c(-c2ccc(C)cc2)csc1NC(=S)NC(=O)c1cc(OC)cc(OC)c1 | 2.59 µM [falling, full curve, poor fit] | –
CN(C)S(=O)(=O)N1CCC(Oc2cccc(C(=O)NCCCC3CCCC3)c2)CC1 | 7.94 µM [falling, partial curve] | –
Cc1ccc(-c2nnc(Nc3ccc(O)cc3)c3ccccc23)cc1S(=O)(=O)NCCO | 14.1 µM [falling, partial curve] | –
O=C(NCc1ccccc1)c1ccc(Br)cc1Br | 11.6 µM [rising, partial curve, poor fit] | –
COc1ccc(Cl)cc1C(=O)Nn1c(-c2cccs2)nc2ccccc2c1=O | 25.9 µM [falling, partial curve, poor fit] | –
CCCCCOc1ccc(NC(=O)CSc2cccc3cccnc23)cc1 | – | 18.4 µM [falling, single point]
O=C(Nc1cccc([N+](=O)[O-])c1)N1CCCc2ccccc21 | 31.6 µM [rising, single point] | –

Two entries from above, in markdown.

| SMILES | AC50 [1] | AC50 [2] |
| --- | --- | --- |
| O=C(CCCc1nc(-c2ccccc2)no1)N1CCOCC1 | 5.01 µM [rising, partial curve, poor fit] | – |
| Cn1c(=O)cc(SCC(=O)N2CCN(C(=O)c3ccco3)CC2)c2ccccc21 | – | 13 µM [falling, partial curve, poor fit] |

Some values from the results shown.
CCN(Cc1ccccc1)S(=O)(=O)c1ccc(OC)cc1 – AC50 [1]: 35.5 µM [rising, single point]
CN(C)S(=O)(=O)N1CCC(Oc2cccc(C(=O)NCCCC3CCCC3)c2)CC1 – AC50 [1]: 7.94 µM [falling, partial curve]
